From patent publication US20190085093A1
These are yes or no findings as the source states them, for the method shown. In cells and extracts the contact can be indirect. Some results given as binding are weak or reduced against the parent protein; the word gives no strength.

Sequences of proteins named here, by UniProt entry; tags and fusion partners are left off.
UniProt P31749: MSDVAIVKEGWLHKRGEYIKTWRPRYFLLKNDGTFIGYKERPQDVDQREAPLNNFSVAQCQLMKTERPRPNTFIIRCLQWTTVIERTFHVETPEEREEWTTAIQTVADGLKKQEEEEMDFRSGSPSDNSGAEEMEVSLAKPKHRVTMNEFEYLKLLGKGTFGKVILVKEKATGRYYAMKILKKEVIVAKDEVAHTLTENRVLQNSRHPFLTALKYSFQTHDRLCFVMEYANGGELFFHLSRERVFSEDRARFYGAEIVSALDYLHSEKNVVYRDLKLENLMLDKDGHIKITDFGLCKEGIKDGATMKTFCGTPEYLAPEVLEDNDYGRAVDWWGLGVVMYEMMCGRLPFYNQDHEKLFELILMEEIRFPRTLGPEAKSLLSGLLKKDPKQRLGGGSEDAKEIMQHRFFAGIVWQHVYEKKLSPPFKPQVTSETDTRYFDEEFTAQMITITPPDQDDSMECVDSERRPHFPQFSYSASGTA

Columns and labels:
Akt1 [1] = target: Akt1 (UniProt P31749); assay: co-immunoprecipitation of endogenous Akt1 with FLAG antibodies
Akt1 [2] = target: Akt1 (UniProt P31749); assay: co-immunoprecipitation with anti-FLAG antibody

| Binder | binding (Akt1 [1]) | binding (Akt1 [2]) |
| --- | --- | --- |
| partial FCHo1 (562-889)-C-3×DDK (protein, human, UniProt O14526 562-889, looked up, not shown: small tags and cut ends) RRLRSRKVSCPLTRSNGDLSRSLSPSPLGSSAASTALERPSFLSQTGHGVSRGPSPVVLGSQDALPIATAFTEYVHAYFRGHSPSCLARVTGELTMTFPAGIVRVFSGTPPPPVLSFRLVHTTAIEHFQPNADLLFSDPSQSDPETKDFWLNMAALTEALQRQAEQNPTASYYNVVLLRYQFSRPGPQSVPLQLSAHWQCGATLTQVSVEYGYRPGATAVPTPLTNVQILLPVGEPVTNVRLQPAATWNLEEKRLTWRLPDVSEAGGSGRLSASWEPLSGPSTPSPVAAQFTSEGTTLSGVDLELVGSGYRMSLVKRRFATGMYLVSC | binds | – |
| partial FCHo1 (1-268)-C-3×DDK (protein, human, UniProt O14526 1-268, looked up, not shown: small tags and cut ends) MSYFGEHFWGEKNHGFEVLYHSVKQGPISTKELADFIRERATIEETYSKAMAKLSKLASNGTPMGTFAPLWEVFRVSSDKLALCHLELTRKLQDLIKDVLRYGEEQLKTHKKCKEEVVSTLDAVQVLSGVSQLLPKSRENYLNRCMDQERLRRESTSQKEMDKAETKTKKAAESLRRSVEKYNSARADFEQKMLDSALRFQAMEETHLRHMKALLGSYAHSVEDTHVQIGQVHEEFKQNIENVSVEMLLRKFAESKGTGREKPGPLDF | – | binds |
